Assay results as given in the supplement of paper PMC6411743.
± gives the standard deviation of the averaged measurements. The list shows a part of the results.

By UniProt entry, the sequences of proteins in these tests, tags left out. Where a name states a change or a piece, a line headed by the entry shows the natural chain unless it says otherwise.
UniProt Q7KZF4: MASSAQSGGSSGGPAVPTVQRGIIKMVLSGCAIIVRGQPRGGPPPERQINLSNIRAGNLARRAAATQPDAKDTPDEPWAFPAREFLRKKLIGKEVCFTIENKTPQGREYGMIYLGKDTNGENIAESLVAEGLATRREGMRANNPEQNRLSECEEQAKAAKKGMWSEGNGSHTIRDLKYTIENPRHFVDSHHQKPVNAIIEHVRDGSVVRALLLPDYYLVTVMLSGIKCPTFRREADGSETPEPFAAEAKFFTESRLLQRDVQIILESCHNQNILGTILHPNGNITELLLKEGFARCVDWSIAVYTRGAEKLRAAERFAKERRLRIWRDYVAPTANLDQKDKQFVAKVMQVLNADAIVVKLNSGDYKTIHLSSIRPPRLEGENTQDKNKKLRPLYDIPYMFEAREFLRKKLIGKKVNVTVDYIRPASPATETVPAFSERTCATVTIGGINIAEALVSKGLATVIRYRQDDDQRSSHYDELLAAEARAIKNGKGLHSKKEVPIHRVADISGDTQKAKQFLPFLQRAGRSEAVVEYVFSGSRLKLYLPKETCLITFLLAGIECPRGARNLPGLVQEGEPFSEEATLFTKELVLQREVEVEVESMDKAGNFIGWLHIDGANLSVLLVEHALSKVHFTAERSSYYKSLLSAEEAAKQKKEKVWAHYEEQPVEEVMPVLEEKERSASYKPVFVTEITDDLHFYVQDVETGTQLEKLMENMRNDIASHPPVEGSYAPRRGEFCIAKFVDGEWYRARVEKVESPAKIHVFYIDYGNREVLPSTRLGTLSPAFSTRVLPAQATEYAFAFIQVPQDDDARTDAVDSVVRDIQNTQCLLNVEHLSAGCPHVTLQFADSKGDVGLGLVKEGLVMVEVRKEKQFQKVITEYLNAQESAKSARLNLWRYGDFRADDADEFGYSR
UniProt Q6Y288: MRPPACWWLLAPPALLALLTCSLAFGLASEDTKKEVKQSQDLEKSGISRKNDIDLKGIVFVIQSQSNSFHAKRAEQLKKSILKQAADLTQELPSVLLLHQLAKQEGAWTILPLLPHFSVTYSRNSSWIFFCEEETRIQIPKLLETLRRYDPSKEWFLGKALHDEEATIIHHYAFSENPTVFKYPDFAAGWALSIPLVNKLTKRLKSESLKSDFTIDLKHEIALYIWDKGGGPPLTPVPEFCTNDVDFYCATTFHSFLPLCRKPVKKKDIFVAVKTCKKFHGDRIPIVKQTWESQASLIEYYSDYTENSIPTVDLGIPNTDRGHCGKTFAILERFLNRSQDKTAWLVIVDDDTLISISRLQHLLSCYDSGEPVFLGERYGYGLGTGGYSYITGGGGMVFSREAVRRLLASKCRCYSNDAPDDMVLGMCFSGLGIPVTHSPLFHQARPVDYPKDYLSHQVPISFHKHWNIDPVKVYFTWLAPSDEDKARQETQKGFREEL
UniProt Q6YN16: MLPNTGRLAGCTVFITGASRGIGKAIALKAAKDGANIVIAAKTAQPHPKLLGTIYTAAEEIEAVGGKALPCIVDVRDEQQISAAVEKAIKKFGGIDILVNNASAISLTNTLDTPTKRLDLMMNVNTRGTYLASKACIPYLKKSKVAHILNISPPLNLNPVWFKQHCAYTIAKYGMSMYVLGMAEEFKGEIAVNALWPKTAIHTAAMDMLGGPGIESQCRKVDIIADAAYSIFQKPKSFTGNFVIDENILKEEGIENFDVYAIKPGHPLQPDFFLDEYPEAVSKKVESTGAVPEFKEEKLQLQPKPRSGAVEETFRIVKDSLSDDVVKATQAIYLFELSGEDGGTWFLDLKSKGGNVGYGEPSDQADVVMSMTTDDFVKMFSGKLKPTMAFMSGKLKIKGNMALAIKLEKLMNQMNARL
UniProt Q86SX6: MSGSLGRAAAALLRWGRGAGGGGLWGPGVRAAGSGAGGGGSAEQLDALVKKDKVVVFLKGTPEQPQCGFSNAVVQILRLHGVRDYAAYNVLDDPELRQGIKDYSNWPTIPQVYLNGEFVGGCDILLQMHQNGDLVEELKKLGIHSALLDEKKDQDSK
UniProt Q6P1X6: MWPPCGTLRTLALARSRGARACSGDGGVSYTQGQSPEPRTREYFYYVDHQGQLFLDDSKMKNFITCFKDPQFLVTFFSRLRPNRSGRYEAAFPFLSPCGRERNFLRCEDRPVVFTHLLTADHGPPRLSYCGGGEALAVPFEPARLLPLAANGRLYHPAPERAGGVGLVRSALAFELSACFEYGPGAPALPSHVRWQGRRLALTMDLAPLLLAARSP
UniProt Q6ICB0: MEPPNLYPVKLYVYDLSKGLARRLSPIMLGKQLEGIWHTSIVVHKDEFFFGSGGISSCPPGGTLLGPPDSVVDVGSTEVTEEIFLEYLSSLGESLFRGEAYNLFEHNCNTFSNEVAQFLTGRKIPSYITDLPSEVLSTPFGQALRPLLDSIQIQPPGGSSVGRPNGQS
UniProt Q6PID6, whole entry: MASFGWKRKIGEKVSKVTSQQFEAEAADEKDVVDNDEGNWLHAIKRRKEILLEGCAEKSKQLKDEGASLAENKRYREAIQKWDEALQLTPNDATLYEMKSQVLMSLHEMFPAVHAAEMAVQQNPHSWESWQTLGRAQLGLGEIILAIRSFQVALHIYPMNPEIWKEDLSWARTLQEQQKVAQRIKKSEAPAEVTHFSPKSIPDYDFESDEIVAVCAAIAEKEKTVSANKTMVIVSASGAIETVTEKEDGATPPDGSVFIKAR
UniProt Q6IA86: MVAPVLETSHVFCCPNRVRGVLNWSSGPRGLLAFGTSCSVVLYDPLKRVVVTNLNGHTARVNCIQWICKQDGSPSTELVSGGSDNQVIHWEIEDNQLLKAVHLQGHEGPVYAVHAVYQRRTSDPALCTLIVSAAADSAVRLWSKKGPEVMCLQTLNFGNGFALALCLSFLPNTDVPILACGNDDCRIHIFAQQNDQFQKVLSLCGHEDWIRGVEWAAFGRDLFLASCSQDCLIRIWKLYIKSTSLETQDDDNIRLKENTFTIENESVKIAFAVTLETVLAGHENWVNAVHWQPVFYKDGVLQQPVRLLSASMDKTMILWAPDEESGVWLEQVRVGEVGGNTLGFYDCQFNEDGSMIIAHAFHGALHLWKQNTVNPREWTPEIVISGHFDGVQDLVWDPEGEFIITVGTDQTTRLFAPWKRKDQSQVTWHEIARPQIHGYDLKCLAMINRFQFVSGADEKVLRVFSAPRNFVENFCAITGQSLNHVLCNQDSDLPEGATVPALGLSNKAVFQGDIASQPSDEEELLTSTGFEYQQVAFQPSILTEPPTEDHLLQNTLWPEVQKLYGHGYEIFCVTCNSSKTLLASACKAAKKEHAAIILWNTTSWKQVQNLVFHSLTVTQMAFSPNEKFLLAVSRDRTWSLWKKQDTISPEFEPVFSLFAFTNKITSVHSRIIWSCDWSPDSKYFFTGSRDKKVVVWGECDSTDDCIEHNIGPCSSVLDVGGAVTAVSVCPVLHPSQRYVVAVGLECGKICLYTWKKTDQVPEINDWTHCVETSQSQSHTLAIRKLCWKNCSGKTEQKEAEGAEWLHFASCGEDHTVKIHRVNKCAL
UniProt Q7Z5G4, whole entry: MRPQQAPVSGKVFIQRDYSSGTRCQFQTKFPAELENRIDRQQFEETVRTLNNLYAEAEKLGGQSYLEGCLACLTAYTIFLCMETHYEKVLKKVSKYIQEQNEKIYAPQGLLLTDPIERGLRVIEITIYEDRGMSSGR
UniProt Q6ZNB6: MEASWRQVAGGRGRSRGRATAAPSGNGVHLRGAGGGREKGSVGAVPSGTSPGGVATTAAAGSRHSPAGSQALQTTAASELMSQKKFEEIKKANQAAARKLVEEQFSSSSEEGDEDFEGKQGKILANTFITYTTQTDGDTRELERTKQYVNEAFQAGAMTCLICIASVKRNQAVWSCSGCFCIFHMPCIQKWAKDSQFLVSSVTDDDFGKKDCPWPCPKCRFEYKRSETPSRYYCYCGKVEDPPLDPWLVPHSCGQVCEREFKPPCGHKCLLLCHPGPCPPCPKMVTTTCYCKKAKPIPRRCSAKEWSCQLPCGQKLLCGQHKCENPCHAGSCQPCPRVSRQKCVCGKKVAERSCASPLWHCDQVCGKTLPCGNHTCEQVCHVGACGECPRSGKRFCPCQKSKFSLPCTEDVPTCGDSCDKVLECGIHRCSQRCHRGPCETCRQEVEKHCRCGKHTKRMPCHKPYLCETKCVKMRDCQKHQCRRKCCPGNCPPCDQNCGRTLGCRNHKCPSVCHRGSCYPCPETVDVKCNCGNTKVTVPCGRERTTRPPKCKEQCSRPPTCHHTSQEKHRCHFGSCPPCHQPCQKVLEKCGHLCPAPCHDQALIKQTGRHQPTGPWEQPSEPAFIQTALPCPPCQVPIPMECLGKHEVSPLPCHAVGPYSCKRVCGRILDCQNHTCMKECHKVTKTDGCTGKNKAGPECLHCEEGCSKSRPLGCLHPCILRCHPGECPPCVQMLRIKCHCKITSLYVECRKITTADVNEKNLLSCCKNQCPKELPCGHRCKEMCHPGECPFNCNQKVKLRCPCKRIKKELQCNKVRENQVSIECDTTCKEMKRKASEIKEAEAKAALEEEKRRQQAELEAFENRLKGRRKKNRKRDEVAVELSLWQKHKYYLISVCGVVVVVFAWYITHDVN
UniProt Q6NXT6: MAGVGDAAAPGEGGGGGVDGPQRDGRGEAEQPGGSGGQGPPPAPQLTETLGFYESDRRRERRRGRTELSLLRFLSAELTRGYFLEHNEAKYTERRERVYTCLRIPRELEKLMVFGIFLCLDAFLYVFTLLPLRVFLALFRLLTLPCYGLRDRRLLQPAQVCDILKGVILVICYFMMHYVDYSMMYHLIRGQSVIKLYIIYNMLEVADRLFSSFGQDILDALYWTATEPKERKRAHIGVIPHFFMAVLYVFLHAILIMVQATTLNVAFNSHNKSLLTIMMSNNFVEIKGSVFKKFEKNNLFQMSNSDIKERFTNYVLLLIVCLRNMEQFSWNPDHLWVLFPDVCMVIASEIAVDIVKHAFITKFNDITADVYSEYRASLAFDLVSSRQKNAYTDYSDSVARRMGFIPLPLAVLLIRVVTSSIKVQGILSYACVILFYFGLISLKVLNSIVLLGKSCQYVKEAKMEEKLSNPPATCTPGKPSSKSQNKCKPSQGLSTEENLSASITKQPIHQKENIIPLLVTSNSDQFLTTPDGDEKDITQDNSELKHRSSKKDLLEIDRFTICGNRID
UniProt Q86SK9: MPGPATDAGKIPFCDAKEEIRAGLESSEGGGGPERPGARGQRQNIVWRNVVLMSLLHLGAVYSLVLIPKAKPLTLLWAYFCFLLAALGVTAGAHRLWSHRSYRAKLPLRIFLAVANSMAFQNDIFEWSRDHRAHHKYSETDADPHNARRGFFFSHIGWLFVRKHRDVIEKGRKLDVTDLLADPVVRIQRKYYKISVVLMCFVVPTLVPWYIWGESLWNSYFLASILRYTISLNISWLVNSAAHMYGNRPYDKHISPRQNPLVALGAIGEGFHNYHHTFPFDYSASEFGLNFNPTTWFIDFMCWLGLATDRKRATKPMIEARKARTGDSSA
UniProt Q68E01, whole entry: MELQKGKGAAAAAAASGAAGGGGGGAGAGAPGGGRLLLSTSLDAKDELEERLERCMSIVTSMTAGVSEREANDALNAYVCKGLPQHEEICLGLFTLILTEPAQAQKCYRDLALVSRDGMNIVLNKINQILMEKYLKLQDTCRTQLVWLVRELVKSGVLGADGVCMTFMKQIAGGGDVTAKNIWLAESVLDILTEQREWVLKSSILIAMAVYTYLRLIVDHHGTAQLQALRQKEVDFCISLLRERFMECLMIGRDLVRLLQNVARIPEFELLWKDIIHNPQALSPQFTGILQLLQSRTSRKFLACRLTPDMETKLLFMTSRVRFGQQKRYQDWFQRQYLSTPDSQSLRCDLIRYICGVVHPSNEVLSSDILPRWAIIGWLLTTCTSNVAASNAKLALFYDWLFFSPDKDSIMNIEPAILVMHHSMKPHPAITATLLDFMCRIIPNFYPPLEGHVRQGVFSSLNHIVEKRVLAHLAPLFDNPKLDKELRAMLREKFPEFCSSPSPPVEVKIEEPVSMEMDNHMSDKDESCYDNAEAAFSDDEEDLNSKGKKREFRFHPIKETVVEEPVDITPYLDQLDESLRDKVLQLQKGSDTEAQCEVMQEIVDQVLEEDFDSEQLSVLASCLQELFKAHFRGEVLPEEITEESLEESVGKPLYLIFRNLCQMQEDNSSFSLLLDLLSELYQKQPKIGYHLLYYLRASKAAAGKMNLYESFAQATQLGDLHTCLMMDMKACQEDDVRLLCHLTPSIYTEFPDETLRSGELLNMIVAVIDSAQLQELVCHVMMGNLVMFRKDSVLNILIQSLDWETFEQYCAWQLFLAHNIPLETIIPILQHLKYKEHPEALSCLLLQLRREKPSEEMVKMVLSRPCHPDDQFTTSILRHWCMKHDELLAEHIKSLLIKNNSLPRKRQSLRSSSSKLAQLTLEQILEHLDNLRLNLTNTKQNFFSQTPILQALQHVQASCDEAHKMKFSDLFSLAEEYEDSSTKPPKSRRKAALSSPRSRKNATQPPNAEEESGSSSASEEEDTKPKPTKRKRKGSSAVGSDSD

Compound: Nc1nc2c(ncn2[C@@H]2O[C@H](COP(=O)(O)OP(=O)(O)OP(=O)(O)O)[C@@H](O)[C@H]2O)c(=O)[nH]1 [guanosine triphosphate]
Experiment: NP40-soluble protein abundance relative to vehicle (solubility fold change) (ratio); higher = more soluble protein in presence of GTP
Method in brief: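 Data come from three independent experiments in which Dounce-homogenised Jurkat crude lysate was treated at eight concentrations from 0.1 to 10 mM. Treatment ran 10 min at room temperature and then 3 min at 37 °C, after which 0.8% NP40 and benzonase were added for 60 min at 4 °C before ultracentrifugation. The supernatant underwent TMT labelling and LC-MS/MS, and vsn-normalised intensities were expressed as fold change against the detergent-processed vehicle in each replicate.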

Target	NP40-soluble protein abundance (concentration: 0.1mM)	NP40-soluble protein abundance (concentration: 0.5mM)	NP40-soluble protein abundance (concentration: 1mM)	NP40-soluble protein abundance (concentration: 2mM)	NP40-soluble protein abundance (concentration: 4mM)	NP40-soluble protein abundance (concentration: 6mM)	NP40-soluble protein abundance (concentration: 8mM)	NP40-soluble protein abundance (concentration: 10mM)
UniProt Q7Z3D6-2|Q7Z3D6-4|E5RHG2 and related entries	0.999 ± 0.03	1.01 ± 0.093	1.03 ± 0.095	1 ± 0.077	0.943 ± 0.086	0.98 ± 0.1	0.971 ± 0.045	0.997 ± 0.097
TWF2 (UniProt Q6IBS0)	1.02 ± 0.035	1.09 ± 0.049	1.02 ± 0.017	1.02 ± 0.055	1.03 ± 0.08	1.01 ± 0.013	0.95 ± 0.032	0.951 ± 0.012
SND1 (UniProt Q7KZF4)	1.01 ± 0.026	1.03 ± 0.023	0.996 ± 0.02	1.04 ± 0.038	1.12 ± 0.043	1.18 ± 0.033	1.2 ± 0.063	1.2 ± 0.097
UniProt Q6Y288	1.04 ± 0.13	1.15 ± 0.032	1.09 ± 0.09	1 ± 0.062	0.969 ± 0.063	1.02 ± 0.062	1.01 ± 0.042	0.983 ± 0.062
Q5VY60 and related entries (UniProt Q7Z4H7)	1.01 ± 0.024	0.986 ± 0.037	0.976 ± 0.021	0.99 ± 0.023	0.975 ± 0.025	0.986 ± 0.044	1.02 ± 0.043	0.983 ± 0.028
ATL3 (UniProt Q6DD88)	0.978 ± 0.045	0.977 ± 0.027	0.954 ± 0.051	0.919 ± 0.058	0.928 ± 0.068	0.922 ± 0.054	0.946 ± 0.069	0.907 ± 0.063
UniProt Q7Z7F0 and related entries	0.933 ± 0.019	0.93 ± 0.036	0.968 ± 0.038	0.939 ± 0.1	0.913 ± 0.065	0.915 ± 0.098	0.941 ± 0.077	0.941 ± 0.053
HSDL2 (UniProt Q6YN16)	0.936 ± 0.082	0.954 ± 0.061	0.922 ± 0.06	0.905 ± 0.071	0.889 ± 0.066	0.91 ± 0.079	0.898 ± 0.071	0.883 ± 0.073
GLRX5 (UniProt Q86SX6)	0.933 ± 0.089	0.877 ± 0.14	1.01 ± 0.14	1.07 ± 0.21	1.11 ± 0.32	0.973 ± 0.19	1.01 ± 0.19	1.16 ± 0.23
C8orf82 (UniProt Q6P1X6)	0.971 ± 0.019	0.928 ± 0.04	0.962 ± 0.045	0.935 ± 0.042	0.938 ± 0.045	0.906 ± 0.011	0.871 ± 0.021	0.911 ± 0.011
UniProt Q6ICB0	0.87 ± 0.16	0.864 ± 0.18	0.876 ± 0.084	0.824 ± 0.13	0.801 ± 0.12	0.83 ± 0.16	0.757 ± 0.098	0.779 ± 0.11
TTC33 (UniProt Q6PID6)	0.96 ± 0.028	0.954 ± 0.059	1 ± 0.03	1 ± 0.028	1 ± 0.056	0.965 ± 0.025	0.989 ± 0.025	0.998 ± 0.027
UniProt Q6IA86 and related entries	1.11 ± 0.12	1.08 ± 0.16	0.983 ± 0.12	1.06 ± 0.23	1.08 ± 0.17	0.977 ± 0.17	0.959 ± 0.092	0.984 ± 0.16
CIAPIN1 (UniProt Q6FI81)	0.958 ± 0.029	0.945 ± 0.028	0.958 ± 0.043	0.932 ± 0.048	0.905 ± 0.05	0.92 ± 0.079	0.91 ± 0.03	0.92 ± 0.05
UniProt Q6R327 and related entries	1.05 ± 0.061	1.1 ± 0.072	1.17 ± 0.033	1.12 ± 0.12	1.18 ± 0.059	1.18 ± 0.073	1.19 ± 0.089	1.1 ± 0.1
UniProt Q5UIP0 and related entries	0.993 ± 0.041	1.01 ± 0.042	1.06 ± 0.03	1.05 ± 0.059	1.09 ± 0.067	1.14 ± 0.077	1.21 ± 0.12	1.2 ± 0.17
UniProt Q5VVQ6 and related entries	1.1 ± 0.037	1.0384 ± 0.00061	1.03 ± 0.1	1.022 ± 0.004	1.11 ± 0.14	1.06 ± 0.13	1.02 ± 0.05	1.07 ± 0.12
UniProt Q6FIF0 and related entries	0.95 ± 0.067	0.931 ± 0.084	1 ± 0.044	0.986 ± 0.082	0.969 ± 0.12	0.944 ± 0.099	0.967 ± 0.12	1 ± 0.054
UniProt Q7Z5G4 and related entries	1.16 ± 0.033	1 ± 0.074	1.13 ± 0.13	1.13 ± 0.072	1.11 ± 0.11	0.96 ± 0.025	1.07 ± 0.18	0.928 ± 0.016
UniProt Q7Z406 and related entries	0.995 ± 0.065	1.04 ± 0.13	0.902 ± 0.092	0.954 ± 0.11	0.97 ± 0.051	0.959 ± 0.044	0.922 ± 0.069	0.819 ± 0.038
NFXL1 (UniProt Q6ZNB6)	1.04 ± 0.079	1.09 ± 0.1	1.05 ± 0.091	1.11 ± 0.067	1.13 ± 0.12	1.16 ± 0.13	1.12 ± 0.12	1.15 ± 0.11
SLC30A9 (UniProt Q6PML9)	1.1 ± 0.058	1 ± 0.054	0.987 ± 0.06	0.997 ± 0.12	0.997 ± 0.067	1 ± 0.11	1.05 ± 0.16	0.972 ± 0.053
UniProt Q86U86 and related entries	1.07 ± 0.048	1.14 ± 0.078	1.21 ± 0.092	1.38 ± 0.11	1.53 ± 0.12	1.61 ± 0.16	1.72 ± 0.16	1.78 ± 0.18
UniProt Q7L0J3 and related entries	1.06 ± 0.066	1.07 ± 0.036	1.02 ± 0.05	1.05 ± 0.019	1.07 ± 0.043	1.05 ± 0.03	1.05 ± 0.028	1.01 ± 0.067
Q5VXN0 and related entries (UniProt Q9H7B2)	1.03 ± 0.077	1.1 ± 0.15	1.08 ± 0.14	1.05 ± 0.085	0.862 ± 0.098	0.843 ± 0.11	0.733 ± 0.05	0.798 ± 0.093
UniProt Q6NXT6 and related entries	1.01 ± 0.035	0.994 ± 0.044	0.983 ± 0.054	0.956 ± 0.045	0.971 ± 0.066	0.951 ± 0.053	0.999 ± 0.06	0.948 ± 0.079
UHRF1BP1 (UniProt Q6BDS2)	1.04 ± 0.013	0.972 ± 0.065	1.07 ± 0.027	1.05 ± 0.12	1.11 ± 0.12	1.05 ± 0.12	1.02 ± 0.056	1.04 ± 0.06
UniProt Q86SK9 and related entries	0.9765 ± 0.008	1.01 ± 0.043	0.929 ± 0.065	0.954 ± 0.028	0.914 ± 0.055	0.989 ± 0.055	0.904 ± 0.012	0.924 ± 0.066
UniProt Q68E01 and related entries	1.01 ± 0.028	1.01 ± 0.026	1.03 ± 0.027	1.03 ± 0.03	1.08 ± 0.026	1.12 ± 0.053	1.11 ± 0.036	1.11 ± 0.021
CEP350 (UniProt Q5VT06)	0.9783 ± 0.0029	1.039 ± 0.0076	0.9907 ± 0.003	1.06 ± 0.06	1.02 ± 0.078	0.996 ± 0.04	0.957 ± 0.041	1.083 ± 0.0084

Reformatted: entries from further up.
Target,NP40-soluble protein abundance (concentration: 0.1mM),NP40-soluble protein abundance (concentration: 0.5mM),NP40-soluble protein abundance (concentration: 1mM),NP40-soluble protein abundance (concentration: 2mM),NP40-soluble protein abundance (concentration: 4mM),NP40-soluble protein abundance (concentration: 6mM),NP40-soluble protein abundance (concentration: 8mM),NP40-soluble protein abundance (concentration: 10mM)
Q5VY60 and related entries (UniProt Q7Z4H7),1.01 ± 0.024,0.986 ± 0.037,0.976 ± 0.021,0.99 ± 0.023,0.975 ± 0.025,0.986 ± 0.044,1.02 ± 0.043,0.983 ± 0.028
ATL3 (UniProt Q6DD88),0.978 ± 0.045,0.977 ± 0.027,0.954 ± 0.051,0.919 ± 0.058,0.928 ± 0.068,0.922 ± 0.054,0.946 ± 0.069,0.907 ± 0.063
